Measurements reported in publication PMC10897158.
Residue numbers refer to the chain shown, from its start. No constants are given. Whether binding was seen depends on the method and setting. In cells and extracts the contact can be indirect. Some binding calls cover weakened binding; strength is not graded here. Sequences can lack the tags named with a protein.

Key:
[1] = target: T1, HA-UBA6 mut (4Ala) (UniProt A0AVT1); assay: co-IP; HA-tagged UBA constructs co-transfected with FLAG-USE1 or GFP-polyAla (19Ala) into HEK293T cells; immunoprecipitation with anti-HA; blot with anti-FLAG, anti-HA, anti-GFP
T1 sequence: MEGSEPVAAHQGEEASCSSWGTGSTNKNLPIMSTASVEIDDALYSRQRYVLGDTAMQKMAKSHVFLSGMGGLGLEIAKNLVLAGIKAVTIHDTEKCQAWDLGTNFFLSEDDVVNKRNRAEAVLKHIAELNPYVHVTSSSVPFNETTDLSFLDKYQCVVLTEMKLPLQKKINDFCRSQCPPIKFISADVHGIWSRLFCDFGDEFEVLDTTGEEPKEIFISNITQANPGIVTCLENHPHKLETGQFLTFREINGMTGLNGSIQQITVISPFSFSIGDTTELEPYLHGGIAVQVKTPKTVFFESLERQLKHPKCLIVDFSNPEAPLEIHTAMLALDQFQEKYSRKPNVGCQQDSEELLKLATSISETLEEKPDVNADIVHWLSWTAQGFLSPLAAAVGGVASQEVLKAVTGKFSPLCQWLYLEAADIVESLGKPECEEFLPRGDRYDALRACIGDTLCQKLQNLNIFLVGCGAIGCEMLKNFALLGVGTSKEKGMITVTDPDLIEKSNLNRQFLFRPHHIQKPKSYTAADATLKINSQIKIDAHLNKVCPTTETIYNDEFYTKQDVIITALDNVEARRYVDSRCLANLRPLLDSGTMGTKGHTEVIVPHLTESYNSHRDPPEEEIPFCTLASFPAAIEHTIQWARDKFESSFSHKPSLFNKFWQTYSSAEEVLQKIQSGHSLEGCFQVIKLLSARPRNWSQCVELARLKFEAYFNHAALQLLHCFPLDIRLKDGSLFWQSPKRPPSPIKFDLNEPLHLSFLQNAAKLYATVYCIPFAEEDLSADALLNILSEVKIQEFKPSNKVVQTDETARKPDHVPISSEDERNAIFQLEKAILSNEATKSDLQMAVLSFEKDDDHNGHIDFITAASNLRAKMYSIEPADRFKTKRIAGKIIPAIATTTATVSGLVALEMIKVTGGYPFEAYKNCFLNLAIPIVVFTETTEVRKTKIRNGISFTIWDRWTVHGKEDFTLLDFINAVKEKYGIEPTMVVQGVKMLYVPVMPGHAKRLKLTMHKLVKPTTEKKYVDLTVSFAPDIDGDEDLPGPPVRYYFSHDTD

[2] = target: T2, HA-UBA6 mut (4Asp) (UniProt A0AVT1); assay: as above
T2 sequence: T1 sequence with A628D, A691D, A709D, A714D

[3] = target: T3, HA-tagged UBA6 wild type (pcDNA3.1-HA-UBA6) (UniProt A0AVT1); assay: as above
T3 sequence: T1 sequence with A628K, A691R, A709K, A714K

[4] = target: T4, E1 ubiquitin-activating enzyme UBA6 (endogenous) (human (endogenous in HEK293T, human fibroblasts and iPSC-derived neurons)) (UniProt A0AVT1); assay: co-IP; whole-cell lysates of transfected HEK293T cells; immunoprecipitation of endogenous UBA6 with anti-UBA6; IP buffer 20 mM Tris-HCl pH 7.2, 150 mM NaCl, 2 mM MgCl2, 0.5% NP-40; pre-clearing with beads for isolated polyalanine stretches
T4 sequence: T1 sequence with A628K, A691R, A709K, A714K

Measured: binding

AAAAAAAAAAAAAAAAAAA [GFP-polyAla (19Ala), isolated polyalanine stretch without NLS]
binds: all assays above
